Measured values published in PubChem BioAssay AID651768 (National Center for Advancing Translational Sciences (NCATS), 2012).
Among all 360,000 compounds or so, about 1,700 (0.47%) were called active. The shares of active, inactive and inconclusive entries below differ from those in the screen. The call rests on the fitted dose curve; in most records, active means well fitted inhibition curve with a large enough effect; inconclusive means small, poorly fitted or top-dose-only effect; inactive means no such curve, though single readings can be large or run the other way. Potencies beside an inconclusive call are fits to weak or partial responses and may not hold up.

Amino acid sequences for entries named in this document (tags omitted).
UniProt Q14191, whole entry, looked up: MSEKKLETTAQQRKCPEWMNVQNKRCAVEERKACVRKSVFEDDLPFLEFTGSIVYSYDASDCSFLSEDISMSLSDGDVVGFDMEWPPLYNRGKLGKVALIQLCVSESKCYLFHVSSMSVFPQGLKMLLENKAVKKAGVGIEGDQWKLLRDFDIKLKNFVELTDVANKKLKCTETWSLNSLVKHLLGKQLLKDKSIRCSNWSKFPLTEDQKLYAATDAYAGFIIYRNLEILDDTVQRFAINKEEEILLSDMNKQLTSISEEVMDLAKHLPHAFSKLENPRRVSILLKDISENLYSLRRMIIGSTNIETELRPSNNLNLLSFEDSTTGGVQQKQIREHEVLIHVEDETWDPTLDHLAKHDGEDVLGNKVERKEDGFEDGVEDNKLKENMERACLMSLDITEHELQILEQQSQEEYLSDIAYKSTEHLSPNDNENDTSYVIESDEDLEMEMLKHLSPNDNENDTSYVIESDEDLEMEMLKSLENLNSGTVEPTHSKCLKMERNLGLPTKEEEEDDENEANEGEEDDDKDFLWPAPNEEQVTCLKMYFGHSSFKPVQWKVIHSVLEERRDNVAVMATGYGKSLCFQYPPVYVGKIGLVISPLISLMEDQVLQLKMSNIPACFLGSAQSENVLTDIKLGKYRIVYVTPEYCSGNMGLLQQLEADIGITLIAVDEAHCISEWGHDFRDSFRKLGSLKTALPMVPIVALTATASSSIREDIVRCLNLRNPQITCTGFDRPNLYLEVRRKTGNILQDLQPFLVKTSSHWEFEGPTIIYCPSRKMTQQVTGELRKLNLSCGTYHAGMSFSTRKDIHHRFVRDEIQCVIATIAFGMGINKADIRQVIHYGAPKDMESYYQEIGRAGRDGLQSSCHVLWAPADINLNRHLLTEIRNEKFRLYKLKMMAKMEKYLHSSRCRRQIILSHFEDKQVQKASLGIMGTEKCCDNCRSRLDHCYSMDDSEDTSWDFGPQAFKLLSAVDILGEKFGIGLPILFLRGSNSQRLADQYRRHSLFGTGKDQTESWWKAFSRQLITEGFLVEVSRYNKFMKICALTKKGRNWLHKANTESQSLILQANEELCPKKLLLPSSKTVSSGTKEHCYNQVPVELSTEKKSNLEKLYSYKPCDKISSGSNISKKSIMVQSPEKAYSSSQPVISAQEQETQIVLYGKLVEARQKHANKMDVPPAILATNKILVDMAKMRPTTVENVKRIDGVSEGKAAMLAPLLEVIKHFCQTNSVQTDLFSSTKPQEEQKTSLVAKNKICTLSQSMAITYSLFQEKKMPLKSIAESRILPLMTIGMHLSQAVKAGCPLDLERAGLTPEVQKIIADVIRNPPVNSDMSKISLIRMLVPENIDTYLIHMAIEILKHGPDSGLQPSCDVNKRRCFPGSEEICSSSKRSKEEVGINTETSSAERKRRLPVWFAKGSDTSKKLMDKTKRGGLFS

target: Bifunctional 3'-5' exonuclease/ATP-dependent helicase WRN (Homo sapiens) (UniProt Q14191); test: qHTS for Inhibitors of WRN Helicase; settings: WRN helicase unwinding, fluorescent forked duplex, kinetic; series mostly up to 114 µM; further: nearly all actives have a fitted effect of over 55% in size
Outline: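 Screening of the MLSMR collection measured strand separation of a quenched forked DNA duplex (100 nM) by 20 nM WRN with 2 mM ATP, all final. Compounds were preincubated with enzyme 15 min at room temperature.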
Potency means the concentration at half of the fitted maximal effect.

| Structure (SMILES) | Potency |
| --- | --- |
| CSc1nc(=S)cc(C)[nH]1 | active: 39.8 µM |
| c1ccc2c(c1)CC/C2=N/Nc1nc2ccccc2[nH]1 | inconclusive: 79.4 µM [inhibitor, single point] |
| CC(=O)c1cccc(OCC(=O)N(C)CC(=O)NCc2ccco2)c1 | inconclusive: 2.99 µM [inhibitor, partial curve] |
| O=C(CCN1CCN(CC(=O)Nc2ccccc2Cl)CC1)Nc1ccccc1F | inconclusive: 89.1 µM [inhibitor, single point] |
| FC(F)(F)C1=Nc2cccc3cccc(c23)N1 | inconclusive: 100 µM [inhibitor, partial curve, poor fit] |
| O=S(=O)(Nc1cc2nc3ccccc3nc2n1Cc1ccccc1)c1ccc(Cl)cc1 | inconclusive: 100 µM [inhibitor, partial curve, poor fit] |
| O=C1/C(=C/c2ccc(O)c(O)c2)Oc2cc(O)ccc21 | inconclusive: 50.1 µM [inhibitor, partial curve] |
| Cc1cc(C)c(-n2nnnc2SCC(=O)c2cc3ccccc3o2)c(C)c1 | inconclusive: 56.2 µM [inhibitor, partial curve, poor fit] |
| COc1ccccc1OCCSc1nc2ccccc2n1CCC(=O)O | inactive |
| CCCCNc1c2c3c(cccc3n(C)c1=O)C(=O)c1ccccc1-2 | inconclusive: 44.7 µM [inhibitor, partial curve] |
| Cc1ccc(Cl)c(OCC(=O)Nc2sc(C)c(C)c2C#N)c1 | inconclusive: 11.2 µM [inhibitor, partial curve] |
| C=CCSC1=N/C(=C\C=C\c2ccco2)C(=O)S1 | active: 31.6 µM |
| O=c1c2cc(F)ccc2sn1-c1ccccc1 | inactive |
| Cc1ccc(C(=O)/C=C/c2cc(Br)cc(Br)c2O)o1 | active: 79.4 µM |
| CN(C)CCNS(=O)(=O)c1ccc(N2CCN(c3ccc(F)cc3)CC2)c([N+](=O)[O-])c1 | inactive |
| COc1ccc(C(=O)Nc2c(O)ccc3ccccc23)cc1 | inconclusive: 8.91 µM [inhibitor, partial curve, poor fit] |
| CNC(=O)CSc1nc2cc(S(=O)(=O)Nc3ccc(OC)cc3)ccc2o1 | inconclusive: 35.5 µM [inhibitor, full curve, poor fit] |
| O=c1c2ccccc2sn1-c1nccs1 | active: 25.1 µM |
| COCc1cc(C)n(CC(=O)N/N=C/c2ccc(-c3ccc(Cl)c(C(=O)O)c3)o2)c(=O)c1C#N | inconclusive: 50.1 µM [inhibitor, partial curve] |
| NC(=O)COc1ccccc1 | inactive |
| Oc1ccc(N=Nc2c(O)ccc3ccccc23)cc1 | inactive |

At a glance, part of the list above:

| Structure (SMILES) | Potency |
| --- | --- |
| COCc1cc(C)n(CC(=O)N/N=C/c2ccc(-c3ccc(Cl)c(C(=O)O)c3)o2)c(=O)c1C#N | inconclusive: 50.1 µM [inhibitor, partial curve] |
| NC(=O)COc1ccccc1 | inactive |
